{"source": "PubChem BioAssay AID504786 (Drosophila RNAi Screening Center, 2011)", "assay": "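Fly genes required for HIF-dependent transcription when hypoxia is mimicked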 (primary screen)", "cells": "Drosophila S2 cells with a stable HIF luciferase reporter", "knock-down reagent": "long dsRNA against Drosophila genes, about 0.2 µg dsRNA per well of a 384-well plate", "timing": "three days of knock-down, then 20 h of DFO before reading", "challenge": "desferrioxamine (DFO) at 100 µM, an iron chelator that mimics hypoxia, for 20 h", "detection": "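HIF reporter luminescence in cells given 100 µM DFO for 20 h, using the mouse ldh-a hypoxia-response element, scored as per-plate z-scores; higher means greater loss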", "direction": "z-score: higher = stronger loss of HIF reporter signal", "note": "In all, the deposit lists about 21,000 reagents; this is an unselected part of those with a known target gene and a result. 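Primary screen; positive scores mean lost reporter signal, so the sign may be inverted from the usual convention.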 A plus sign joins genes that one reagent is predicted to hit. Further read-outs or replicates are left out here. Reagent sequences are not shown."}
{"Gene":"His1:CG33816 + His1:CG33828 + His1:CG33819 + 21 more","amplicon":"DRSC21266","z-score, replicate 1":0}
{"Gene":"Tet (Ten-Eleven Translocation (TET) family protein)","amplicon":"DRSC08550","z-score, replicate 1":-0.2}
{"Gene":"CheA87a (Chemosensory protein A 87a)","amplicon":"DRSC14839","z-score, replicate 1":-0.3}
{"Gene":"CG42319","amplicon":"DRSC06645","z-score, replicate 1":-0.2}
{"Gene":"CG42319","amplicon":"DRSC06646","z-score, replicate 1":-0.3}
{"Gene":"CG13309","amplicon":"DRSC09980","z-score, replicate 1":-0.2}
{"Gene":"elgi (early girl)","amplicon":"DRSC10242","z-score, replicate 1":-0.3}
{"Gene":"FBXO11 (F-box protein 11)","amplicon":"DRSC16497","z-score, replicate 1":-0.4}
{"Gene":"lobo (lost boys)","amplicon":"DRSC14662","z-score, replicate 1":0.1}
{"Gene":"lobo (lost boys)","amplicon":"DRSC14663","z-score, replicate 1":-0.6}
{"Gene":"CG13949","amplicon":"DRSC00367","z-score, replicate 1":-0.3}
{"Gene":"CG12744","amplicon":"DRSC06164","z-score, replicate 1":-0.4}
{"Gene":"Fmr1 (Fragile X messenger ribonucleoprotein 1)","amplicon":"DRSC16674","z-score, replicate 1":-0.1}
{"Gene":"Rpn13 (Regulatory particle non-ATPase 13)","amplicon":"DRSC06379","z-score, replicate 1":0.6}
{"Gene":"wdn (wings down)","amplicon":"DRSC17095","z-score, replicate 1":0.1}
{"Gene":"spartin","amplicon":"DRSC12187","z-score, replicate 1":-0.3}
{"Gene":"CG16922 (retired record)","amplicon":"DRSC19758","z-score, replicate 1":1.5}
{"Gene":"Grx5 (Glutaredoxin 5)","amplicon":"DRSC19593","z-score, replicate 1":0.1}
{"Gene":"CG13082","amplicon":"DRSC02186","z-score, replicate 1":-0.4}

An excerpt taken from the entries so far, as a working copy:
{"Gene":"CG42319","amplicon":"DRSC06646","z-score, replicate 1":-0.3}
{"Gene":"CG13309","amplicon":"DRSC09980","z-score, replicate 1":-0.2}
{"Gene":"elgi (early girl)","amplicon":"DRSC10242","z-score, replicate 1":-0.3}
{"Gene":"FBXO11 (F-box protein 11)","amplicon":"DRSC16497","z-score, replicate 1":-0.4}
{"Gene":"lobo (lost boys)","amplicon":"DRSC14662","z-score, replicate 1":0.1}
{"Gene":"lobo (lost boys)","amplicon":"DRSC14663","z-score, replicate 1":-0.6}
{"Gene":"CG13949","amplicon":"DRSC00367","z-score, replicate 1":-0.3}

The results go on.
{"Gene":"CG7567","amplicon":"DRSC16258","z-score, replicate 1":-0.6}
{"Gene":"CG18234","amplicon":"DRSC10309","z-score, replicate 1":-0.3}
{"Gene":"Ipk1 (Inositol phosphate kinase 1)","amplicon":"DRSC04235","z-score, replicate 1":-0.2}
{"Gene":"Ipk1 (Inositol phosphate kinase 1)","amplicon":"DRSC04236","z-score, replicate 1":-0.2}
{"Gene":"Ipk1 (Inositol phosphate kinase 1)","amplicon":"DRSC04237","z-score, replicate 1":-0.4}
{"Gene":"CG2926","amplicon":"DRSC12321","z-score, replicate 1":-0.3}
{"Gene":"fos28F (retired record)","amplicon":"DRSC03391","z-score, replicate 1":-0.3}
{"Gene":"beat-VI (beaten path VI)","amplicon":"DRSC14474","z-score, replicate 1":-0.4}
{"Gene":"beat-VI (beaten path VI)","amplicon":"DRSC14727","z-score, replicate 1":-0.3}
{"Gene":"Nepl4 (Neprilysin-like 4)","amplicon":"DRSC03239","z-score, replicate 1":-0.3}
{"Gene":"CG6106","amplicon":"DRSC19971","z-score, replicate 1":-0.3}
{"Gene":"H2.0 (Homeodomain protein 2.0)","amplicon":"DRSC03340","z-score, replicate 1":-0.5}
{"Gene":"CG9717","amplicon":"DRSC16543","z-score, replicate 1":-0.2}
{"Gene":"CG7084","amplicon":"DRSC16194","z-score, replicate 1":-0.3}
{"Gene":"ValRS (Valyl-tRNA synthetase)","amplicon":"DRSC06864","z-score, replicate 1":0.4}
{"Gene":"Gbeta5 (G protein beta subunit 5)","amplicon":"DRSC17754","z-score, replicate 1":-0.3}
{"Gene":"CG31388","amplicon":"DRSC15254","z-score, replicate 1":-0.1}
{"Gene":"CG3436","amplicon":"DRSC00605","z-score, replicate 1":2.1}
{"Gene":"CG14826","amplicon":"DRSC10197","z-score, replicate 1":-0.4}
{"Gene":"CheA86a (Chemosensory protein A 86a)","amplicon":"DRSC12839","z-score, replicate 1":-0.3}
{"Gene":"CG3281","amplicon":"DRSC15470","z-score, replicate 1":-0.2}
{"Gene":"ImpL2 (Ecdysone-inducible gene L2)","amplicon":"DRSC08666","z-score, replicate 1":-0.4}
{"Gene":"gfzf (GST-containing FLYWCH zinc-finger protein)","amplicon":"DRSC12506","z-score, replicate 1":1.3}
{"Gene":"ex (expanded)","amplicon":"DRSC00817","z-score, replicate 1":-0.5}
{"Gene":"CG5676","amplicon":"DRSC02875","z-score, replicate 1":-0.2}
{"Gene":"mys (myospheroid)","amplicon":"DRSC18799","z-score, replicate 1":-0.3}
{"Gene":"Peritrophin-A (Peritrophin A)","amplicon":"DRSC20570","z-score, replicate 1":-0.3}
{"Gene":"Tim9a","amplicon":"DRSC19753","z-score, replicate 1":-0.3}
{"Gene":"CG6607","amplicon":"DRSC16073","z-score, replicate 1":0.1}
{"Gene":"CG8547","amplicon":"DRSC07211","z-score, replicate 1":-0.4}
{"Gene":"CG13937","amplicon":"DRSC08406","z-score, replicate 1":-0.6}
{"Gene":"Sara (Smad anchor for receptor activation)","amplicon":"DRSC04653","z-score, replicate 1":-0.1}
